Results taken from US11400106B2, “Methods for inhibiting microbe growth” (priority 2018, dated 2022).

Tests used:
E. coli = assay type: cell-based, Escherichia coli
Protocol: (§1) In the following experiments, bacterial cells were cultured in 96-well microtiter plates in cation-adjusted Mueller-Hinton Broth (MHB) for 18 h at 37° C. The main strains used were E. coli (K-12 BW25113) (placed in stationary incubator) and S. aureus (Newman Strain) (incubated at 250 r.p.m). Knockout strains (ΔtolcC and ΔychM) were used from the Keio knockout collection (Baba et al., Construction of Escherichia coli K-12 in-frame, single-gene knockout mutants: the Keio collection. Mol Syst Biol 2, 2006 0008, doi:10.1038/msb4100050 (2006)). For MIC determination and checkerboard analyses, Clinical & Laboratory Standards Institute (CLSI) protocol was used. […] DiSC3 loading of S. aureus cells was performed as previously described (Farha et al., Collapsing the proton motive force to identify synergistic combinations against Staphylococcus aureus. Chemistry & biology 20, 1168-1178, doi:10.1016/j.chembiol.2013.07.006 (2013)). CCCP concentration of 20 μM was used. pH adjustments were made by addition of HCl or NaOH. INT assay and ATP bioluminescence assays were performed as previously described (Farha et al., Collapsing the proton motive force to identify synergistic combinations against Staphylococcus aureus. Chemistry & biology 20, 1168-1178, doi:10.1016/j.chembiol.2013.07.006 (2013)). For chemical-genomic studies, the Keio library was grown overnight in cation-adjusted MHB broth, in 384-well plates. From these, treatment plates (25 mM sodium bicarbonate, or a sterile water control) were inoculated and grown for 15 hours at 37° C., in a stationary incubator. Data was normalized according to Mangat et al (Mangat et al., Rank ordering plate data facilitates data visualization and normalization in high-throughput screening. J Biomol Screen 19, 1314-1320, doi:10.1177/1087057114534298 (2014)), with gene products and GO terms mined from EcoCyc. The GFP promoter library (Keseler et al., EcoCyc: fusing model organism databases with systems biology. Nucleic Acids Res 41, D605-612, doi:10.1093/nar/gks1027 (2013)) was grown for 18 hours at ambient temperature with the same inoculation strategy as with the Keio collection. The analysis pipeline of Zaslaver et al (Zaslaver et al., A comprehensive library of fluorescent transcriptional reporters for Escherichia coli. Nat Methods 3, 623-628, doi:10.1038/nmeth895 (2006)) was used to generate maps of promoter activity, from which lists of promoters with increased or decreased activity were compiled.
(§2) Fold enhancement in MICs in the media supplemented with sodium bicarbonate is represented by a positive fold, whereas suppression of activity is represented by a negative fold.
(§3) The effect of sodium bicarbonate on the activity of additional antibacterial agents was investigated. […]

S. aureus = system: S. aureus
Protocol: as §1, §2, §3

SMILES | MIC, E. coli, MHB (E. coli) | MIC, E. coli, MHB+ (E. coli) | MIC, S. aureus, MHB (S. aureus) | MIC, S. aureus, MHB+ (S. aureus)
CCCCCCCCCCCCCCCC[n+]1ccccc1 [Cetylpyridinium chloride] | 16 μg of antimicrobial agent/mL of buffer | 4 μg of antimicrobial agent/mL of buffer | 0.125 μg of antimicrobial agent/mL of buffer | 0.0156 μg of antimicrobial agent/mL of buffer
CC(C)(C)CC(C)(C)c1ccc(OCCOCC[N+](C)(C)Cc2ccccc2)cc1 [Benzethonium chloride] | 64 μg of antimicrobial agent/mL of buffer | 32 μg of antimicrobial agent/mL of buffer | 1 μg of antimicrobial agent/mL of buffer | 0.5 μg of antimicrobial agent/mL of buffer
